Data reported in PubChem BioAssay AID504444 (National Center for Advancing Translational Sciences (NCATS), 2011).
Among all 360,000 compounds or so, about 7,500 (2.1%) were called active. Inconclusive means that the source gave no clear call. Such entries were picked first, then a sample of the others. The call rests on the fitted dose curve; in most records, active means well fitted inhibition curve with a large enough effect; inconclusive means small, poorly fitted or top-dose-only effect, or effect the other way; inactive means flat fitted curve, though single readings scatter. Potencies beside an inconclusive call are fits to weak or partial responses and may not hold up.

assay: Nrf2 qHTS screen for inhibitors; details: A549 ARE-Fluc reporter, luciferase luminescence, 18-24 h; activity change, negative = inhibition: at 46 µM (top of the series); further: nearly all actives have a fitted effect of over 60% in size
In short: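 In this cell-based qHTS, ARE-driven firefly luciferase in A549 cells reports Nrf2 activity; the luminescent signal after BugLite lysis is the measured value, with a prior CellTiter-Fluor read for cell health.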
On the % scale 0 is the no-effect control and ±100 the full control effect; potency means the concentration at half of the fitted maximal effect.

Compound	Potency	activity change, negative = inhibition
Cc1cc(C)nc(NNC(=O)c2ccccc2O)n1	inconclusive: 18.4 µM [falling, single point]	–
CO/N=C/c1ccc(OC)c(Oc2nc(OC)cc(OC)n2)c1	inconclusive: 13 µM [activator, partial curve]	–
COc1cc2[nH]c(=O)n(CCC(=O)NCCC(C)C)c(=O)c2cc1OC	inconclusive: 13 µM [falling, partial curve, poor fit]	–
Cc1cc(C)c2nc(NC(=O)C3CSC4(C)CCC(=O)N34)sc2c1 (configuration not stated)	inconclusive: 0.411 µM [activator, full curve, poor fit]	–
Cc1ccccc1NS(=O)(=O)c1ccc2[nH]c3c(c2c1)CCCCC3	inconclusive: 20.6 µM [falling, single point]	–
N#C/C(=C/c1ccc(-c2ccc([N+](=O)[O-])cc2)o1)C(=O)Nc1nc(-c2cccs2)cs1	inconclusive: 32.6 µM [falling, single point]	–
CCCCc1cc(-c2n[nH]c(=S)o2)c2ccccc2n1	inconclusive: 7.31 µM [falling, partial curve]	–
Cc1ccc(Cl)cc1N1CCN(C(=O)c2ccc3nc(N4CCC(C)CC4)sc3c2)CC1	inconclusive: 2.06 µM [activator, partial curve]	–
O=C(Nc1sc2c(c1C(=O)O)CCCCC2)c1ccco1	inconclusive: 9.2 µM [falling, partial curve, poor fit]	–
Cc1cc(Cl)ccc1OCC(=O)N1CCC(c2nc3ccccc3o2)CC1	inconclusive: 20.6 µM [falling, partial curve]	–
Cc1ccc(N(Cc2cc3ccc(C)cc3[nH]c2=O)S(=O)(=O)c2ccccc2)cc1	inconclusive: 25.9 µM [falling, single point]	–
Cc1nc2ccccn2c1C(=O)CSc1ccc(Cl)cc1Cl	–	inactive: -7.45%
CCOc1ccccc1N(C)C(=O)c1cc2c(=O)n(CC)c3ccccc3c2s1	inconclusive: 29.1 µM [falling, single point]	–
CCN(C[C@H]1N[C@@](Cc2ccccc2)(C(=O)OC)[C@H]2C(=O)N(Cc3ccccc3)C(=O)[C@@H]12)C(=O)c1ccc(F)cc1	inconclusive: 29.1 µM [falling, single point]	–
Cc1ccc2oc(-c3cccc(NC(=S)NC(=O)c4cccs4)c3)nc2c1	inconclusive: 4.61 µM [activator, partial curve]	–
Cc1oc(-c2ccccc2)cc1C(=O)Nc1cccc2ccccc12	inconclusive: 32.6 µM [falling, single point]	–
CC1CCN(S(=O)(=O)c2ccc(C(=O)Nc3ccccc3-c3nc4ccccc4[nH]3)cc2)CC1	active: 25.9 µM	–

As a working copy, part of the list above.
Compound	Potency	activity change, negative = inhibition
Cc1cc(C)nc(NNC(=O)c2ccccc2O)n1	inconclusive: 18.4 µM [falling, single point]	–
CO/N=C/c1ccc(OC)c(Oc2nc(OC)cc(OC)n2)c1	inconclusive: 13 µM [activator, partial curve]	–
COc1cc2[nH]c(=O)n(CCC(=O)NCCC(C)C)c(=O)c2cc1OC	inconclusive: 13 µM [falling, partial curve, poor fit]	–
Cc1cc(C)c2nc(NC(=O)C3CSC4(C)CCC(=O)N34)sc2c1 (configuration not stated)	inconclusive: 0.411 µM [activator, full curve, poor fit]	–
Cc1ccccc1NS(=O)(=O)c1ccc2[nH]c3c(c2c1)CCCCC3	inconclusive: 20.6 µM [falling, single point]	–
